Results taken from PMC12439347.
These are yes or no findings as the source states them, for the method shown. For some of these results: In cells and extracts the contact can be indirect. Some binding calls cover weakened binding; strength is not graded here.

Amino acid sequences for entries named in this document (tags omitted).
UniProt Q9NQT8: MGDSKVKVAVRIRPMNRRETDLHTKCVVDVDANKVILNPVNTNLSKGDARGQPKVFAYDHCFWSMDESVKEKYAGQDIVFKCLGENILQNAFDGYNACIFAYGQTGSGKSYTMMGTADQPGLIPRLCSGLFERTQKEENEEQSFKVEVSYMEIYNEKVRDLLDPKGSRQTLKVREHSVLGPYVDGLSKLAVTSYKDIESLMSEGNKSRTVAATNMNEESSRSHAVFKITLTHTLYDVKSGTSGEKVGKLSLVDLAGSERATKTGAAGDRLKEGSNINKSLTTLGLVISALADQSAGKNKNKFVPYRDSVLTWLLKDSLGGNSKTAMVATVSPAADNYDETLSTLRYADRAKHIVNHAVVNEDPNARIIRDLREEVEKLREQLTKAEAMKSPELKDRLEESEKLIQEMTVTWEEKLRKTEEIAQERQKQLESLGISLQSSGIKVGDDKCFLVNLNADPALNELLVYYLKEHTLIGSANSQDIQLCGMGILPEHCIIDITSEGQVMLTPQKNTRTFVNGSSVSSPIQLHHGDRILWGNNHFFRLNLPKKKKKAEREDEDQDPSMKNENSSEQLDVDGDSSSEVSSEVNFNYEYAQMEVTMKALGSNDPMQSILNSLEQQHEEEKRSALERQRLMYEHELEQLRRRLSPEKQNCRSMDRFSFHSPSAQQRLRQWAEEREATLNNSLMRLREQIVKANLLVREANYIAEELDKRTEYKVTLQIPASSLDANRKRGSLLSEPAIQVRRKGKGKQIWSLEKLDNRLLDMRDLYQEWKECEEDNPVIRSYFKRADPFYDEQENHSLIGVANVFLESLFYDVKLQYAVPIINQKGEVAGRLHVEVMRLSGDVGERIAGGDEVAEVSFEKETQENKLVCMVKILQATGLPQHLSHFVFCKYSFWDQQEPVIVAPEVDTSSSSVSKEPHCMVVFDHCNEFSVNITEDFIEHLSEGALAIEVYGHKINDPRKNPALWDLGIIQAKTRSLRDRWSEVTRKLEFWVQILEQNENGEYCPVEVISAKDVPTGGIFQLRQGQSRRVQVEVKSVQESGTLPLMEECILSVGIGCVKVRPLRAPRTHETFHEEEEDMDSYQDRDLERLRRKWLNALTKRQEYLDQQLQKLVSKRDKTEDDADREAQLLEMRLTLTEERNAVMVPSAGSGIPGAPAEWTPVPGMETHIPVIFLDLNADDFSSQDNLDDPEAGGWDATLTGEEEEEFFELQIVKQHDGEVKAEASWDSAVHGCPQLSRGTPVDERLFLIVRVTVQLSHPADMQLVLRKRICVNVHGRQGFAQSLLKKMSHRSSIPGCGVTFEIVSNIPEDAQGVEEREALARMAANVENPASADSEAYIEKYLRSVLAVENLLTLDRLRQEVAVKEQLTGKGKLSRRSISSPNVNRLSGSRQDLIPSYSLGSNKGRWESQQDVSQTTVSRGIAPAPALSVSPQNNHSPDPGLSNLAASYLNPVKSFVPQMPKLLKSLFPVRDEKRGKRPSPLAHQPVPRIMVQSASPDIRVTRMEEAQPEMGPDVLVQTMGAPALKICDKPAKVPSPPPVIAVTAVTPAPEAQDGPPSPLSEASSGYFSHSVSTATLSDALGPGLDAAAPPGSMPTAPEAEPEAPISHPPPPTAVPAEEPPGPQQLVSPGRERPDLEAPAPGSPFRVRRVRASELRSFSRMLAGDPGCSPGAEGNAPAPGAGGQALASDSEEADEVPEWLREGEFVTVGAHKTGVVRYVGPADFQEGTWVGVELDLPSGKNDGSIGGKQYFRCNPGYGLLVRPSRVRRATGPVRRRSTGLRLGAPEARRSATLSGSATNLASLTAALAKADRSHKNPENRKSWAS
UniProt Q9R210: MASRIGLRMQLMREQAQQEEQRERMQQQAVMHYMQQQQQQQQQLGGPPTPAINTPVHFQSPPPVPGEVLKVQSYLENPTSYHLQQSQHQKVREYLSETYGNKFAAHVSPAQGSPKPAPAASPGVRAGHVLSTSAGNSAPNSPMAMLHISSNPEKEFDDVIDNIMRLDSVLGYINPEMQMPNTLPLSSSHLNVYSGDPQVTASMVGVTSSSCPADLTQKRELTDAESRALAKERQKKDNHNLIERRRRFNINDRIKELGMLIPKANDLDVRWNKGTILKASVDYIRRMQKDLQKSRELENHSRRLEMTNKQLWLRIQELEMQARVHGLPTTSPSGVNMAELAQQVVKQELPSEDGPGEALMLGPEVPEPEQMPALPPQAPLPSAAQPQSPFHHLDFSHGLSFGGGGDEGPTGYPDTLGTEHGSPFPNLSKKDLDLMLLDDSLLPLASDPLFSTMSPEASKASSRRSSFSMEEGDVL
UniProt Q93008: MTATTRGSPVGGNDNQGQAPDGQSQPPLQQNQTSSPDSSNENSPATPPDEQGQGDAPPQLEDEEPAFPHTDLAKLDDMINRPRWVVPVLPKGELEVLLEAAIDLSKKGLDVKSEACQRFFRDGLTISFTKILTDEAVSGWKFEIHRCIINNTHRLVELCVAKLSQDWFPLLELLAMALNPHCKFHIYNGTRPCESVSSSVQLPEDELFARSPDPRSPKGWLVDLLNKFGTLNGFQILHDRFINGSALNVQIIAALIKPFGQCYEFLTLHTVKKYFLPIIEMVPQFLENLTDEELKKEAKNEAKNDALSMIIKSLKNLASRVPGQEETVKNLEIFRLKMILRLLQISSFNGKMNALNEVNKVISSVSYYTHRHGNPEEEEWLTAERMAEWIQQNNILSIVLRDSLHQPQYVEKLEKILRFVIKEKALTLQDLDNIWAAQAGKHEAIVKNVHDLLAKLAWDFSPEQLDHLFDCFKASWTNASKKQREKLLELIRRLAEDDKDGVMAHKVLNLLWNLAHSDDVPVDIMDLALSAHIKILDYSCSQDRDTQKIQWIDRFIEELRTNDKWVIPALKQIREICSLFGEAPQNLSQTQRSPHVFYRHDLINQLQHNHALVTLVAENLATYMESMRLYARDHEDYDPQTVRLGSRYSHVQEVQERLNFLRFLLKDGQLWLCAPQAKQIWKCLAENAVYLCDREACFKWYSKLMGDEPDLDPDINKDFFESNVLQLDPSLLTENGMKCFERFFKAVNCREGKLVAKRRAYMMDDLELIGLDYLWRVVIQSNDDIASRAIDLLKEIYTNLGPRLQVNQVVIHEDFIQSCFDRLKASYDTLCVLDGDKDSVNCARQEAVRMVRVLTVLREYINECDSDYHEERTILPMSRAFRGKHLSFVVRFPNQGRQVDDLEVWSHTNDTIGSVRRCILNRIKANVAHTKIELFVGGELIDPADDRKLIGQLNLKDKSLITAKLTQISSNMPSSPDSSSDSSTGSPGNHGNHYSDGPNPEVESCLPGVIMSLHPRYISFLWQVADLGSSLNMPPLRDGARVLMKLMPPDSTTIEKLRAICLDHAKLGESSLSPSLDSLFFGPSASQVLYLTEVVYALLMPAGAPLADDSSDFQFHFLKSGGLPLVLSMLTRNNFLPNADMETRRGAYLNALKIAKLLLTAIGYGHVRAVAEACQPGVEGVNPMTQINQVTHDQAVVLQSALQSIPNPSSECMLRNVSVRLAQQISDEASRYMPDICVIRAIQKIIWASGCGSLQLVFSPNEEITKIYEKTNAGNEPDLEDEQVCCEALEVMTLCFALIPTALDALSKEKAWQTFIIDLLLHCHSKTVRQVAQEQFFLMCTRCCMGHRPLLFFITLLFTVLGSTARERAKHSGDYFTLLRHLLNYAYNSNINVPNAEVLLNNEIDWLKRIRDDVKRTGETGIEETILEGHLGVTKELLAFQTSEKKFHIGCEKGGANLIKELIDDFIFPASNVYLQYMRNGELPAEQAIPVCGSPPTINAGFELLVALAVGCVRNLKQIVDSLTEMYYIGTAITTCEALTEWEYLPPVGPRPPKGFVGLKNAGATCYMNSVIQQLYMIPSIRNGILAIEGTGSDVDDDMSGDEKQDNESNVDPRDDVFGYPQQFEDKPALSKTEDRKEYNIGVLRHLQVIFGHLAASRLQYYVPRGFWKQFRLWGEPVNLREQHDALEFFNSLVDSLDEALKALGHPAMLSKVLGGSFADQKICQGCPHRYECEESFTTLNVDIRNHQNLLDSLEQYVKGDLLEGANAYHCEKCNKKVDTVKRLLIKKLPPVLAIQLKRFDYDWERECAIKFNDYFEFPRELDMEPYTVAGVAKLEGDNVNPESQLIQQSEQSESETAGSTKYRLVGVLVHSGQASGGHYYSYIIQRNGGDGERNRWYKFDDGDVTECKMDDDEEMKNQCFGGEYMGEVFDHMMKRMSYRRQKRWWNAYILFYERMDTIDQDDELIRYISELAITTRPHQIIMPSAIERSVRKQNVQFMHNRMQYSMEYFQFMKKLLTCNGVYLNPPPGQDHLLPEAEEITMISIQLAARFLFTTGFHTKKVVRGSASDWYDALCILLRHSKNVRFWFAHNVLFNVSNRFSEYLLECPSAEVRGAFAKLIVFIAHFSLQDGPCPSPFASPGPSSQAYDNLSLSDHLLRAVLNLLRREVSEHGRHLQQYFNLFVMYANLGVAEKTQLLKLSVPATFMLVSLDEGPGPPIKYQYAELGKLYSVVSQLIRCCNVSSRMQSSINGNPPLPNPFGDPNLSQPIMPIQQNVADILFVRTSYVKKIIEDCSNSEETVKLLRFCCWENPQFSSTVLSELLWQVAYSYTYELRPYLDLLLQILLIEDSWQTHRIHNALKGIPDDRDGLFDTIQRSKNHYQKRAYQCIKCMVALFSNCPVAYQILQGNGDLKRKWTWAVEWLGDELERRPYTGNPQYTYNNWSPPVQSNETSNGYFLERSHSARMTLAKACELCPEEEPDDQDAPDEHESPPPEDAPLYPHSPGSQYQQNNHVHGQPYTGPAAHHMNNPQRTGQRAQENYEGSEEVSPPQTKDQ

How the values were obtained:
[1] = molecular target: Kinesin family member 13b (KIF13B), endogenous in primary mouse BMDMs (mouse (endogenous in primary BMDMs)) (UniProt E9Q4K7); assay: co-IP; endogenous co-IP in primary BMDMs; bait not told in the text shown
[2] = molecular target: Full-length KIF13B overexpressed in THP1-derived macrophages (human) (UniProt Q9NQT8); assay: co-IP; semi-exogenous co-IP in THP1-derived macrophages overexpressing full-length KIF13B or its functional domains (Motor, FHA, RLIP)
[3] = molecular target: Recombinant KIF13B used in the in vitro GST pull-down (UniProt Q9NQT8); assay: pull-down; in vitro GST pull-down using recombinant proteins; both purified

Row | Substance | binding [1] | further results
1 | Transcription factor EB (TFEB), endogenous in primary mouse BMDMs (from UniProt Q9R210 1-475) | binds | –
2 | Ubiquitin specific peptidase 9 x-linked (USP9X), endogenous in primary mouse BMDMs (from UniProt P70398 1-2559) (enzyme) | binds | –
3 | USP9X, endogenous in THP1-derived macrophages (from UniProt Q93008 1-2554) (enzyme) | – | binding [2]: binds
4 | Recombinant USP9X used in the in vitro GST pull-down (from UniProt Q93008 1-2554) (enzyme) | – | binding [3]: binds
